Residue numbers refer to the chain shown, from its start. Like-named read-outs stand apart in the source and are kept apart here. Results are given in words; binding and its absence hold for the method and conditions named. Some results given as binding are weak or reduced against the parent protein; the word gives no strength.
T1: arginine/serine-rich zinc knuckle-containing protein 32 (RS2Z32), native full-length, yeast two-hybrid bait (Arabidopsis thaliana) (UniProt Q9FYB7)
T1 sequence: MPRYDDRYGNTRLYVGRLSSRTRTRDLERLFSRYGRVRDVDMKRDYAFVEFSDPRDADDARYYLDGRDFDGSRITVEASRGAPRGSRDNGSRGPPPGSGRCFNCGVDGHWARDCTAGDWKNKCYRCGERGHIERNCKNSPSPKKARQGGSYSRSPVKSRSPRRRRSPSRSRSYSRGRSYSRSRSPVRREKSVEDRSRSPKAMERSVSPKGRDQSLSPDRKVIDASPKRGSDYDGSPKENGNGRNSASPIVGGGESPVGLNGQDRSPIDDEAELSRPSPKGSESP

The chains behind the UniProt entries cited, without tags or fusion partners.
UniProt Q9LY75: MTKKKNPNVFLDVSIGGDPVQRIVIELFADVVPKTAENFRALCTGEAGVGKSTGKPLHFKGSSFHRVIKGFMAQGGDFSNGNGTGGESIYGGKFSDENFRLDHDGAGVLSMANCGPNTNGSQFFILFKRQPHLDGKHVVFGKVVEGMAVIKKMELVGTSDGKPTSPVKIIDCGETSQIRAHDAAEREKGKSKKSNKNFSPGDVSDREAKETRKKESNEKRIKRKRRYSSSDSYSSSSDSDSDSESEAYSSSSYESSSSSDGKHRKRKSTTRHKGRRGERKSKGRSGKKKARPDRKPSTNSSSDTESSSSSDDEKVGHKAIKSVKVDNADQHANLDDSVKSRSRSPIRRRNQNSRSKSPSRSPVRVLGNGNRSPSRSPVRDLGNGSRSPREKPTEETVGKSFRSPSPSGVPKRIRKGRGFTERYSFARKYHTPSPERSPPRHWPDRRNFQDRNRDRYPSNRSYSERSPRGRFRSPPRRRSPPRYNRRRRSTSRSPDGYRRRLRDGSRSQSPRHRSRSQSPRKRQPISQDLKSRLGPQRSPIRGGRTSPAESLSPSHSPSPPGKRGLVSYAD

T2: RS2Z33mutRRM (Arabidopsis thaliana) (UniProt Q8VYA5)
T2 sequence: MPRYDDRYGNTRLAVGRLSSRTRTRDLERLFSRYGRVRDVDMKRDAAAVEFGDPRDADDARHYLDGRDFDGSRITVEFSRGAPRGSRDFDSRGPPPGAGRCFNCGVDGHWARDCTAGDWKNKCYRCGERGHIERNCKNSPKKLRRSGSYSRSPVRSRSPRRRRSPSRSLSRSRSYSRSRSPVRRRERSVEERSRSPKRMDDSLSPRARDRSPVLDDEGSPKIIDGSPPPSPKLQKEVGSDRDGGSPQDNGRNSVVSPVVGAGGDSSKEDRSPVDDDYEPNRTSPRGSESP

T3: arginine/serine-rich zinc knuckle-containing protein 33 (RS2Z33), native full-length, yeast two-hybrid bait (Arabidopsis thaliana) (UniProt Q8VYA5)
T3 sequence: T2 sequence with A14Y, A46Y, A48F

T4: RS2Z32mutRRM (Arabidopsis thaliana) (UniProt Q9FYB7)
T4 sequence: T1 sequence with Y14A, Y46A, F48A

T5: RS2Z32ΔZnKs+RS+SP (the sole RRM of RS2Z32) (Arabidopsis thaliana) (UniProt Q9FYB7)
T5 sequence: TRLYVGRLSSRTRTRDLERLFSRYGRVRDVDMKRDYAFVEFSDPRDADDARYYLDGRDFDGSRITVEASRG

T6: RS2Z33ΔZnKs+RS+SP (the sole RRM of RS2Z33) (Arabidopsis thaliana) (UniProt Q8VYA5)
T6 sequence: T5 sequence with S42G, Y52H, A68F

B1: SCL30 (protein, UniProt Q8L3X8 1-262)
chain: MRRYSPPYYSPPRRGYGGRGRSPPPPPPRRGYGGGGGGGGRRGSSHGSLLVRNIPLDCRPEELREPFERFGPVRDVYIPRDYYSGQPRGFAFVEFVDAYDAGEAQRSMNRRSFAGREITVVVASESRKRPEEMRVKTRTRSREPSGSRDRSHGRSRSRSISRSRSPRRPSDSRSRYRSRSYSPAPRRRGGPPRGEEDENYSRRSYSPGYEGAAAAAPDRDRNGDNEIREKPGYEAEDRRRGGRAVSRSPSGSRSRSVEVSPR
B2: SR45.2 (protein, UniProt Q9SEE9-2 1-407)
chain: MAKPSRGRRSPSVSGSSSRSSSRSRSGSSPSRSISRSRSRSRSLSSSSSPSRSVSSGSRSPPRRGKSPAGPARRGRSPPPPPSKGASSPSKKAVQESLVLHVDSLSRNVNEAHLKEIFGNFGEVIHVEIAMDRAVNLPRGHGYVEFKARADAEKAQLYMDGAQIDGKVVKATFTLPPRQKVSSPPKPVSAAPKRDAPKSDNAAADAEKDGGPRRPRERLSPRRRSPLPRRGLSPRRRSPDSPHRRRPGSPIRRRGDTPPRRRPASPSRGRSPSSPPPRRYRSPPRGSPRRIRGSPVRRRSPLPLRRRSPPPRRLRSPPRRSPIRRRSRSPIRRPGRSRSSSISPRKGRGPAGRRGRSSSYSSSPSPRRIPRKISRSRSPKRPLRGKRSSSNSSSSSSPPPPPPPRKT
B3: SR45.1 (protein, UniProt Q9SEE9-1 1-414)
chain: MAKPSRGRRSPSVSGSSSRSSSRSRSGSSPSRSISRSRSRSRSLSSSSSPSRSVSSGSRSPPRRGKSPAGPARRGRSPPPPPSKGASSPSKKAVQESLVLHVDSLSRNVNEAHLKEIFGNFGEVIHVEIAMDRAVNLPRGHGYVEFKARADAEKAQLYMDGAQIDGKVVKATFTLPPRQKVSSPPKPVSAAPKRDAPKSDNAAADAEKDGGPRRPRETSPQRKTGLSPRRRSPLPRRGLSPRRRSPDSPHRRRPGSPIRRRGDTPPRRRPASPSRGRSPSSPPPRRYRSPPRGSPRRIRGSPVRRRSPLPLRRRSPPPRRLRSPPRRSPIRRRSRSPIRRPGRSRSSSISPRKGRGPAGRRGRSSSYSSSPSPRRIPRKISRSRSPKRPLRGKRSSSNSSSSSSPPPPPPPRKT

Experiments:
Experiment in all cases: two-hybrid
[1] = molecular target: T1, arginine/serine-rich zinc knuckle-containing protein 32 (RS2Z32), native full-length, yeast two-hybrid bait (Arabidopsis thaliana)
[2] = molecular target: T2, RS2Z33mutRRM (Arabidopsis thaliana)
[3] = molecular target: T3, arginine/serine-rich zinc knuckle-containing protein 33 (RS2Z33), native full-length, yeast two-hybrid bait (Arabidopsis thaliana)
[4] = molecular target: T4, RS2Z32mutRRM (Arabidopsis thaliana)
[5] = molecular target: T1, arginine/serine-rich zinc knuckle-containing protein 32 (RS2Z32), native full-length, yeast two-hybrid bait (Arabidopsis thaliana); remark: listed apart in the source
[6] = molecular target: T3, arginine/serine-rich zinc knuckle-containing protein 33 (RS2Z33), native full-length, yeast two-hybrid bait (Arabidopsis thaliana); remark: listed apart in the source
[7] = molecular target: T5, RS2Z32ΔZnKs+RS+SP (the sole RRM of RS2Z32) (Arabidopsis thaliana)
[8] = molecular target: T6, RS2Z33ΔZnKs+RS+SP (the sole RRM of RS2Z33) (Arabidopsis thaliana)
[9] = molecular target: T3, arginine/serine-rich zinc knuckle-containing protein 33 (RS2Z33), native full-length, yeast two-hybrid bait (Arabidopsis thaliana); remark: listed apart in the source
[10] = molecular target: T1, arginine/serine-rich zinc knuckle-containing protein 32 (RS2Z32), native full-length, yeast two-hybrid bait (Arabidopsis thaliana); remark: listed apart in the source

Molecule | binding [1] | binding [2] | binding [3] | binding [4] | binding [5] | binding [6] | binding [7] | binding [8] | binding [9] | binding [10]
CypRS64 (from UniProt Q9LY75 1-570) | binds | no binding | binds | no binding | binds |  |  |  |  | 
B1 | binds | binds | binds | binds | binds | binds |  |  |  | 
B2 |  | binds | binds | binds | binds | binds | binds | binds |  | 
B3 |  | binds | binds | binds | binds | binds | binds | binds | binds | binds
